Results are given in words; binding and its absence hold for the method and conditions named. Sequences can lack the tags named with a protein.
Target: T1, PHOT1 C (kinase domain of PHOT1), GAL4 DNA-binding domain fusion (Arabidopsis thaliana) (UniProt O48963)
T1 sequence: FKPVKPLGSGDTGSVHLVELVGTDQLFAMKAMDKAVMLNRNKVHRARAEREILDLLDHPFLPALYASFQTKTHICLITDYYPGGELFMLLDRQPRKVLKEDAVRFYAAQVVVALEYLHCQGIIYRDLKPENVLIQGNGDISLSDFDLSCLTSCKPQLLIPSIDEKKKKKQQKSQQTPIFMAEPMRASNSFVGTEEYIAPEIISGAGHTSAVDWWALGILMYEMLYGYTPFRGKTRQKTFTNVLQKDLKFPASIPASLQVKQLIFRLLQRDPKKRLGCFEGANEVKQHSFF
Assay: two-hybrid

- binding: no binding
Substance: N-terminal half of RPT2 (RPT2 N), GAL4 transcription-activating domain fusion (Arabidopsis thaliana) (domain or fragment)
